PubChem BioAssay AID493014 (National Center for Advancing Translational Sciences (NCATS), 2011)
The other results are listed elsewhere or left out. These are further read-outs of the screen, such as a control signal, another cell line or another target. No call is given for them. Most of these compounds were active or inconclusive in the main read-out, so they are no random draw. The note in brackets gives the kind of curve behind each potency; many fits are weak.

Experiment: qHTS Assay to Find Inhibitors of Chronic Active B-Cell Receptor Signaling
Details: ABC-DLBCL IkBa-CBG/CBR reporter, luminescence ratio (green luciferase fused to IkBa over red control in TMD8 lymphoma cells), 4 h
In short: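 TMD8 ABC-DLBCL cells carrying doxycycline-inducible green luciferase fused to IkappaBalpha plus unfused red luciferase were exposed to compounds (up to 46 uM) for 4 hrs at 37C. Activity came from the overlap-corrected green/red luminescence ratio.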

[1] = measured here: CBR red luminescence, cell number
[2] = measured here: IkBa-CBG green luminescence

Compound | AC50 [1] | AC50 [2]
CCC(=O)NC(=S)Nc1cccc(NC(=O)c2ccccc2C)c1 | 7.08 µM [falling, partial curve, poor fit] | –
Cc1cc(SCC(=O)N2CCC(c3noc4ccc(F)cc34)CC2)nc2ccccc12 | 0.58 µM [falling, full curve, poor fit] | –
O=C(CN(C(=O)CSc1nnc(COc2ccccc2)o1)c1ccc(F)cc1)NC1CCCCC1 | 3.66 µM [falling, full curve] | –
Cc1nn(Cc2ccc(Cl)cc2)c(=O)n1N(C)c1ncc(C(F)(F)F)cc1Cl | 2.06 µM [falling, partial curve] | –
CCOc1ccccc1NC(=O)C1C2CCC(O2)C1C(=O)O (configuration not stated) | 2.82 µM [rising, partial curve, poor fit] | –
COc1ccc2c(c1)nc(SCC(=O)c1ccc(Br)s1)n2C | 35.5 µM [rising, single point] | –
CCn1cc(S(=O)(=O)CC(=O)NC2CCCCC2)c2ccccc21 | 20 µM [falling, single point] | –
O=C(COc1cccc2cccnc12)Nc1ccccc1 | 1.41 µM [falling, full curve, poor fit] | –
CCN(CC)S(=O)(=O)c1cc([N+](=O)[O-])ccc1N1CCC(C(N)=O)CC1 | 20 µM [rising, partial curve, poor fit] | –
Cc1ccc(S(=O)(=O)N2CCC(=O)N(C(COCc3ccc(C(F)(F)F)cc3)Cc3ccccc3)CC2)cc1 (configuration not stated) | 5.8 µM [rising, full curve, poor fit] | –
O=C(CCl)Nc1cc2[nH]c(=O)[nH]c2cc1Br | 35.5 µM [rising, single point] | –
N#CC1=C(N)Oc2cc3ccccc3cc2C1c1cccs1 (configuration not stated) | 17.8 µM [falling, single point] | –
CC(=O)NC(CC(=O)NCCN1C(=O)S/C(=C\c2ccccc2)C1=O)c1ccccc1 (configuration not stated) | 35.5 µM [falling, single point] | –
CCCSc1nc(C)cc(C)c1S(C)(=O)=O | 35.5 µM [rising, single point] | –
CC(C)c1ccc(NC(=O)COC(=O)CSc2nnc(N)s2)cc1 | 3.26 µM [rising, single point] | –
CCc1ccc(OCC(=O)O/N=C(\N)c2ccncc2)cc1 | 6.31 µM [rising, full curve, poor fit] | –
COCCN(C(=O)CCl)C(C(=O)NC1CCCCC1)c1ccccc1C (configuration not stated) | 29.1 µM [falling, single point] | –
CCOCCCN(C(=O)Nc1ccc(Cl)cc1)C1CCN(C(C)=O)CC1 | 2.82 µM [rising, full curve] | –
COc1cc(-c2nnc(SCC3(c4ccccc4)OCCO3)o2)cc(OC)c1OC | 35.5 µM [falling, single point] | –
CC1=NN(C(N)=S)C(=O)C1N=Nc1c(Cl)cc([N+](=O)[O-])cc1Cl (configuration not stated) | 10 µM [rising, partial curve, poor fit] | –
CCOc1cccc(C(=O)Nc2ccc3ccccc3c2)c1 | 15.8 µM [falling, partial curve, poor fit] | –
c1ccc(Cc2nnc(N3CCOCC3)c3ccccc23)cc1 | 5.17 µM [rising, single point] | –

Already shown: entries from further up.
Compound | AC50 [1] | AC50 [2]
CCOc1ccccc1NC(=O)C1C2CCC(O2)C1C(=O)O (configuration not stated) | 2.82 µM [rising, partial curve, poor fit] | –
COc1ccc2c(c1)nc(SCC(=O)c1ccc(Br)s1)n2C | 35.5 µM [rising, single point] | –

More entries follow.

Compound | AC50 [1] | AC50 [2]
Cc1ccnc(N2CCC(C(=O)NNC(=O)c3ccccc3C)CC2)n1 | 1.78 µM [falling, full curve] | –
Cc1cc(-c2ccccc2)n2ncc(C#N)c2n1 | 6.51 µM [falling, single point] | –
CCc1ccc(CNC(=O)CN2C(=O)COc3ccccc32)cc1 | 0.0731 µM [rising, full curve, poor fit] | –
COc1ccc(C(=O)NC(=O)N2CCCCC2)cc1 | 0.103 µM [rising, full curve, poor fit] | –
COc1cccc(-c2nc(NC(C)C)c3ccccc3n2)c1O | 0.316 µM [falling, full curve, poor fit] | –
Cc1cc(C)nc(NC(=O)/C=C/c2cccs2)c1 | 3.98 µM [falling, partial curve] | –
CCCCCCCC1CC(CSC(=N)N)OC1=O (configuration not stated) | 1.3 µM [falling, full curve, poor fit] | –
Clc1cccc(Cl)c1-c1noc(CN2CCOCC2)n1 | 0.794 µM [rising, full curve, poor fit] | –
O=C(NCCOC(=O)c1ccccc1C(=O)OCCNC(=O)c1cccnc1)c1cccnc1 | 0.00411 µM [rising, full curve, poor fit] | –
CCc1nc2oc3ccccc3c(=O)c2c(=O)n1-c1ccccc1 | 1.03 µM [falling, full curve] | –
O=C(NCCOc1ccccc1F)Nc1ccc(Br)cc1 | 0.316 µM [rising, full curve, poor fit] | –
COc1cc(C2C=C(c3cccs3)Nc3ncnn32)cc(OC)c1OC (configuration not stated) | 5.62 µM [rising, single point] | 5.62 µM [falling, single point]
Cc1nc2ccccn2c1/C(O)=C1\C(=O)C(=O)N(CCN2CCOCC2)C1c1cccs1 (configuration not stated) | 13 µM [rising, single point] | –
Cc1csc(NC(=O)CSc2ncnc3ccccc23)n1 | 6.31 µM [falling, single point] | –
O=C(/C=C/c1cccc(Br)c1)N1CCN(c2cccc(C(F)(F)F)c2)CC1 | 3.26 µM [rising, partial curve, poor fit] | –
FC(F)(F)c1cccc(Cc2noc(CN3CCCC(OCc4ccccn4)C3)n2)c1 (configuration not stated) | 0.316 µM [rising, full curve] | –
CC[C@@H](C)[C@H](NC(=O)OC(C)(C)C)c1nnc(S(=O)(=O)Cc2cc(C)ccc2C)o1 | 6.31 µM [falling, partial curve] | –
COc1ccc(C(C(=O)NCCC(C)C)N(CCO)C(=O)c2snc(C(N)=O)c2N)cc1 (configuration not stated) | 35.5 µM [rising, partial curve, poor fit] | –
Nc1c(-c2cccc(Cl)c2)cnn1-c1ccccc1 | 10 µM [falling, single point] | –
O=C(OCCOc1cccc(Cl)c1)c1cc(S(=O)(=O)N2CCCCC2)ccc1N1CCOCC1 | 0.92 µM [rising, full curve] | –
COc1ccc(/C(N)=N/OC(=O)CCc2ccccc2)cc1 | 11.2 µM [rising, single point] | –
C/C(=C\C(=O)C(F)(F)F)Nc1ccc(C)cc1 | 2.31 µM [rising, full curve, poor fit] | –

Compound | AC50 [1] | AC50 [2]
CCOc1ccc(/C=N/NC(=O)c2nnn(-c3nonc3N)c2CN(C)C2CCCCC2)cc1 | 1.78 µM [rising, partial curve, poor fit] | –
CCOc1ccccc1N1CCN(C(=O)c2cccc(-c3ccc(O)cc3)c2)CC1 | 25.1 µM [falling, single point] | –
CC1CC(C)CN(CCC(=O)Nc2cccc(Cl)c2)C1 (configuration not stated) | 3.66 µM [rising, single point] | –
Cc1ccc(N(CC(=O)NC2CCCCC2)C(=O)CCCC(=O)Nc2ccccn2)cc1 | 7.08 µM [falling, partial curve] | –
Cc1nc(C)c(C(=O)OCC(=O)N2CCN(c3ccccc3)CC2)s1 | 32.6 µM [falling, single point] | –
COc1ccc2nc(NCCO)[nH]c2c1 | 0.0891 µM [rising, full curve, poor fit] | –
CCN(CC)CCN(Cc1cc2cc(C)ccc2[nH]c1=O)C(=S)NCc1ccco1 | 29.1 µM [falling, single point] | –
O=C(Nc1ccccc1C(=O)Nc1ccccn1)c1ccccc1F | – | 0.708 µM [rising, full curve, poor fit]
C=C1C2(C(=O)NCc3ccco3)CCC(C2)C1(C)C (configuration not stated) | 23.1 µM [falling, single point] | –
C=CCN1c2ccccc2[C@]23C[C@@H](C(=O)OC)N(C(=O)c4cc(C)oc4C)C2=NC(C(=O)OC)=C(C(=O)OC)[C@H]13 | 0.562 µM [rising, full curve] | –
COc1ccccc1N1CCN(C(=O)c2ccc3[nH]c(C)c(C)c3c2)CC1 | 8.91 µM [falling, partial curve, poor fit] | 15.8 µM [falling, single point]
O=C(NC1CCCCC1)N(CCO)Cc1cc2cc3c(cc2[nH]c1=O)OCCO3 | 29.1 µM [falling, single point] | –
O=C(CSc1n[nH]c(-c2ccccc2O)n1)N1CCOCC1 | 14.1 µM [falling, single point] | –
CCN(CC(=O)Nc1ccccc1Br)C1CCCCC1 | 20 µM [falling, partial curve, poor fit] | –
Cc1ccc(Oc2ccccc2/C=N/O)cc1 | 16.4 µM [rising, partial curve] | –
Cc1nc(NC(=O)c2ccc([N+](=O)[O-])cc2Cl)sc1C(=O)N(C)C | 16.4 µM [falling, partial curve, poor fit] | –
CCOC(=O)C(=CNc1ccccc1Cl)C(=O)OCC | 10 µM [falling, partial curve, poor fit] | –
Cc1ccc(CN2CCN(Cc3cc(=O)c4ccccc4[nH]3)CC2CCO)o1 (configuration not stated) | 35.5 µM [rising, single point] | –
CC(=O)c1cccc(NC(=O)C2COc3ccccc3O2)c1 (configuration not stated) | 0.447 µM [rising, full curve, poor fit] | –
COCc1ccc(CN2CCCC(CCC(=O)NCc3cccc(OC)c3)C2)o1 (configuration not stated) | 3.55 µM [rising, single point] | –
CCOc1ncccc1C(=O)Nc1ccc2c(c1)OCO2 | 17.8 µM [falling, single point] | –

Part of the list above, as tab-separated lines:
Compound	AC50 [1]	AC50 [2]
COc1cc(C2C=C(c3cccs3)Nc3ncnn32)cc(OC)c1OC (configuration not stated)	5.62 µM [rising, single point]	5.62 µM [falling, single point]
Cc1nc2ccccn2c1/C(O)=C1\C(=O)C(=O)N(CCN2CCOCC2)C1c1cccs1 (configuration not stated)	13 µM [rising, single point]	–
